Reference: publication PMC8136516
Results are given in words; binding and its absence hold for the method and conditions named. Binding seen in cells or lysates may run through a third protein. Some entries that bind do so weakly or less than the wild type.

Chains of the proteins cited; added tags and fusions are not shown. Residues count along the entry.
UniProt P56817, residues 46-501: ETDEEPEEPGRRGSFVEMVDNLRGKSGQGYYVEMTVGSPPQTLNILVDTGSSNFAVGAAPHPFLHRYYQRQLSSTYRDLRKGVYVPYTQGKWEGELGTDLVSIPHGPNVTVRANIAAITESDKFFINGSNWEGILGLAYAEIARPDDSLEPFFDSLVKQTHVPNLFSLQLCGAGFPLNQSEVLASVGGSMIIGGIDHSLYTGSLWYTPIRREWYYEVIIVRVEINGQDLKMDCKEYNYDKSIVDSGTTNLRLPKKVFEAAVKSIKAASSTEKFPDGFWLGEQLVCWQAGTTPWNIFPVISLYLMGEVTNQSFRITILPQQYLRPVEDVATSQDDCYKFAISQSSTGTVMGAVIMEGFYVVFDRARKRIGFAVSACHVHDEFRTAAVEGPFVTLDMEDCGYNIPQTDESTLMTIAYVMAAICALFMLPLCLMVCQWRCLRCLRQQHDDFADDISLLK
UniProt P14136: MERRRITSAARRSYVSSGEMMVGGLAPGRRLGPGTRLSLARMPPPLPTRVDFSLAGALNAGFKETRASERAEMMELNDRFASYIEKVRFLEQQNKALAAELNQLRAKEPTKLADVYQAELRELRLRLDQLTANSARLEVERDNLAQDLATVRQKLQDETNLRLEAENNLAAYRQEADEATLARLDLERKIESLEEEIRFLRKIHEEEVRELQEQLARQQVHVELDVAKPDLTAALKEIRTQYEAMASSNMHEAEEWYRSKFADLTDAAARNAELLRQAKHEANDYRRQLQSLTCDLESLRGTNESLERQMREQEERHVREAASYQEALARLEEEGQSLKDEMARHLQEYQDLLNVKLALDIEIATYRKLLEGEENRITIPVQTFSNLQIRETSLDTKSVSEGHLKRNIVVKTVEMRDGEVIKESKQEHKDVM

Biological target: β-site amyloid precursor protein-cleaving enzyme 1 (BACE1) (human (endogenous in postmortem brain tissue)) (UniProt P56817)
Test: co-IP; 200 ug total protein of human brain tissue lysate (1% NP40, 100 mM NaCl, 10 mM Tris pH 7.4) incubated overnight at 4°C with anti-BACE1 antibody, Protein G Sepharose beads, three washes; blot with anti-GFAP; IgG as negative control; control, FAD, SAD and CADASIL cases

In the case of “Glial Fibrillary Acid Protein (GFAP) (from UniProt P14136 1-432)”, the binding is reported as “binds”.
